Data on two sequences can be found in publication PMC6053445.

Construct, isoform or probe ends are uncertain for at least one entry. Whether high values mean tight binding is not given here for every scale. Tags and fusion partners may be left off the protein sequences shown.

The data set deals with T1, Sap1-c (Sap1 E109D) (Schizosaccharomyces pombe) (UniProt P40847).
T1 sequence (looked up, limits assumed): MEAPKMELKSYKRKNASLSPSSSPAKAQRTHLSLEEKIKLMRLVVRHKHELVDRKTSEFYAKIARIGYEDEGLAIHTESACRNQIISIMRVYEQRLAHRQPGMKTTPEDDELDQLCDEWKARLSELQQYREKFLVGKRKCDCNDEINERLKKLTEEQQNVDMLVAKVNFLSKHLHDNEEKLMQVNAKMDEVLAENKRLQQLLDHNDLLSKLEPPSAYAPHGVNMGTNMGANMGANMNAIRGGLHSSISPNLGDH
The data set is described as follows: EMSA. The conditions noted are these: two-fold increase stated for DNA in general, not per site; EMSA: protein 0.68-5120 nM (dilution buffer 10 mM HEPES pH 7.5, 100 mM NaCl, 5% glycerol) in 20 mM HEPES pH 7.6, 50 mM KCl, 3 mM MgCl2, 8% glycerol, 0.2% NP-40; recombinant protein; label: 32P. (A gel shift assay detects complexes by their altered migration in electrophoresis.)

For the sequence “AACCAGGGATTCAGTGCAGCTATCTTG (double strand) [Ter1]”, the binding signal (fold affinity vs wild-type Sap1) was 2.

“AGCAATACTACACTACGCTATAATACACTACGTTGAGTATCACTATATGT (double strand) [Tf2]”: the binding signal (fold affinity vs wild-type Sap1) worked out at 2.
